Data on 1 molecule can be found in article PMC10203406.

Results are given in words; binding and its absence hold for the method and conditions named. In cells and extracts the contact can be indirect. Some binding calls cover weakened binding; strength is not graded here. Sequences can lack the tags named with a protein.

This experiment addresses T1, Flag-tagged cGAS (porcine) (porcine) (UniProt I3LM39).
T1 sequence: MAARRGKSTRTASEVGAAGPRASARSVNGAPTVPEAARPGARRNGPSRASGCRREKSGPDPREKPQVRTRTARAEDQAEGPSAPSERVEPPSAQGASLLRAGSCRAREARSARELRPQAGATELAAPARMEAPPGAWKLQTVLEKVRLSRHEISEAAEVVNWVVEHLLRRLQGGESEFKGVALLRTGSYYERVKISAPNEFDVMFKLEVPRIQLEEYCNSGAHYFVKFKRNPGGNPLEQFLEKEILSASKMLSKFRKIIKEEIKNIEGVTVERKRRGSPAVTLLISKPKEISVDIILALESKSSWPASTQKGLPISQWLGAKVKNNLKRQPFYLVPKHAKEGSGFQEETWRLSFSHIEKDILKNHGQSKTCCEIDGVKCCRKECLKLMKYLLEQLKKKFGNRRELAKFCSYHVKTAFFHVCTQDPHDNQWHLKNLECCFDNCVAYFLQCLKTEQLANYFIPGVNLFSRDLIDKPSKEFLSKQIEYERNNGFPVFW
The experiment is described as follows: co-IP.

B1: HA-cGAS (porcine) (protein, UniProt I3LM39 1-495)
chain: MAARRGKSTRTASEVGAAGPRASARSVNGAPTVPEAARPGARRNGPSRASGCRREKSGPDPREKPQVRTRTARAEDQAEGPSAPSERVEPPSAQGASLLRAGSCRAREARSARELRPQAGATELAAPARMEAPPGAWKLQTVLEKVRLSRHEISEAAEVVNWVVEHLLRRLQGGESEFKGVALLRTGSYYERVKISAPNEFDVMFKLEVPRIQLEEYCNSGAHYFVKFKRNPGGNPLEQFLEKEILSASKMLSKFRKIIKEEIKNIEGVTVERKRRGSPAVTLLISKPKEISVDIILALESKSSWPASTQKGLPISQWLGAKVKNNLKRQPFYLVPKHAKEGSGFQEETWRLSFSHIEKDILKNHGQSKTCCEIDGVKCCRKECLKLMKYLLEQLKKKFGNRRELAKFCSYHVKTAFFHVCTQDPHDNQWHLKNLECCFDNCVAYFLQCLKTEQLANYFIPGVNLFSRDLIDKPSKEFLSKQIEYERNNGFPVFW
As to B1, the binding result is recorded as “binds”.
